This is an account of results in article PMC4023949.

Protein sequences, listed by entry. Tags and fused reporters are not part of them.
UniProt P42232: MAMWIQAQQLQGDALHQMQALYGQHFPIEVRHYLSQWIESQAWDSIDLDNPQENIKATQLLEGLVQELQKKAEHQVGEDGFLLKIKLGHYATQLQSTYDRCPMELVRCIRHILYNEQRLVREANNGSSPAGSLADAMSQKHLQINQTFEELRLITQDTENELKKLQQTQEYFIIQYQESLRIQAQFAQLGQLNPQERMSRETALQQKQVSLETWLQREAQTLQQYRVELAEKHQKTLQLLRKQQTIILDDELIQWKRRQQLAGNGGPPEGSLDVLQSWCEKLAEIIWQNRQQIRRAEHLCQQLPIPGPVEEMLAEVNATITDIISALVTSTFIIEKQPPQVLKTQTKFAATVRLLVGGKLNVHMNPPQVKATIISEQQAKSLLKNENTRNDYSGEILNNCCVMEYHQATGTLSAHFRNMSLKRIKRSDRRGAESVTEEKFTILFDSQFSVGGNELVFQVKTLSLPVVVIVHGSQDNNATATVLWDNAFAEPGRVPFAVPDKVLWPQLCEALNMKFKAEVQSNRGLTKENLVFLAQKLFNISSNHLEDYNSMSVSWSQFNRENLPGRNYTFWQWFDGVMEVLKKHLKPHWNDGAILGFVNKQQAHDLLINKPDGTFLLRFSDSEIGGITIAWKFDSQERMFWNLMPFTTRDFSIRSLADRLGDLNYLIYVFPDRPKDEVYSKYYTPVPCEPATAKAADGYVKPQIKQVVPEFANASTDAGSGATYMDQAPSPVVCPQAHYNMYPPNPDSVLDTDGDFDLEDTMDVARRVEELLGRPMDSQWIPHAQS
UniProt P42230: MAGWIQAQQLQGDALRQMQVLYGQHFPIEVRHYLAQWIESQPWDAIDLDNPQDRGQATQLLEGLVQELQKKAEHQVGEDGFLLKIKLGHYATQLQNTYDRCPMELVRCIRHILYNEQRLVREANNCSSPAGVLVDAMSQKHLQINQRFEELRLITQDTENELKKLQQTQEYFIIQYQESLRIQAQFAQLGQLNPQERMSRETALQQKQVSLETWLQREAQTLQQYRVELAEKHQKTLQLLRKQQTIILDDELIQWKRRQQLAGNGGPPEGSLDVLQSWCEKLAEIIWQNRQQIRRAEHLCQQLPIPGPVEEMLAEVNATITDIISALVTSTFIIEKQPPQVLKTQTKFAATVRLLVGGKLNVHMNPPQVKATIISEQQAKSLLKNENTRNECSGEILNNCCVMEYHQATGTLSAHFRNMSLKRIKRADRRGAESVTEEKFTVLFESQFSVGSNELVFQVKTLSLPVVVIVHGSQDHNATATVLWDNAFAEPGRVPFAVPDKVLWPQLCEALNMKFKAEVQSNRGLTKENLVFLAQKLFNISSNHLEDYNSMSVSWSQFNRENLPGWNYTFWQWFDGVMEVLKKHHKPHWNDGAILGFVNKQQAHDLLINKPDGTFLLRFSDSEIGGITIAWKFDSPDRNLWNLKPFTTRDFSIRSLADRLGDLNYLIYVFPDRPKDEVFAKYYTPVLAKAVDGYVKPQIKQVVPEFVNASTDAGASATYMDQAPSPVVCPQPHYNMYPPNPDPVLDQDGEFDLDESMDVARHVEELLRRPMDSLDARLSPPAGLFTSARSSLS

Results are given in words; binding and its absence hold for the method and conditions named. In cells and extracts the contact can be indirect. Some entries that bind do so weakly or less than the wild type.

In assay [1] the target is STAT5B (endogenous, TonB cells) (mouse (endogenous in TonB)) (UniProt P42232). In words: co-IP; endogenous proteins from TonB whole cell lysates; RIPA buffer with inhibitors, isoform-specific anti-STAT5A or anti-STAT5B antibody and Protein A/G Plus-Agarose overnight; western blot for the other isoform and for phosphotyrosine; cells cultured with IL-3, BCR-ABL (doxycycline), IL-3 plus BCR-ABL, or re-stimulated with IL-3 for 30 minutes after starvation.

Assay [2] addresses STAT5A (endogenous, TonB cells) (mouse (endogenous in TonB)) (UniProt P42230). The assay is described as above.
For assay [3] the target is unchanged. As to the kind of experiment: condition: only cells starved of IL-3 overnight, BCR-ABL not induced; co-IP; as a1, but cells starved overnight by withdrawal of IL-3 (Starvation), BCR-ABL not induced.
Assay [4] has as its target epitope-tagged STAT5A (murine) (UniProt P42230). As to the kind of experiment: co-IP; epitope-tagged STAT5A and STAT5B variants over-expressed in TonB cells (Figure S4A); details in the supplement, not shown.
The target in assay [5] is epitope-tagged STAT5B (murine) (UniProt P42232). Described as above.

With “STAT5A (endogenous, TonB cells) (from UniProt P42230 1-793)”, in assay [1], the binding result is listed as “binds”.
Consider “STAT5B (endogenous, TonB cells) (from UniProt P42232 1-786)”, for which the values for the binding result in assay [2] and in assay [3] were “binds” and “no binding”, respectively.
On to “epitope-tagged STAT5A (from UniProt P42230 1-793)”, for which, in assay [4], the binding result is listed as “binds”.
For “epitope-tagged STAT5B (from UniProt P42232 1-786)”, the binding result in assay [5] is recorded as “binds”.
